Results: PubChem BioAssay AID1439 (NMMLSC, 2008)
Out of some 220,000 compounds screened, about 770 (0.35%) were called active. Inconclusive results, whose numbers are uncertain, are shown with a selection of clear calls. Rule as the data show it: active = binding response below about 49% or above about 150%; inconclusive = no clear call, values can overlap the other calls; inactive = in between.

By UniProt entry, the sequences of proteins in these tests, tags left out.
UniProt P09471, whole entry, looked up: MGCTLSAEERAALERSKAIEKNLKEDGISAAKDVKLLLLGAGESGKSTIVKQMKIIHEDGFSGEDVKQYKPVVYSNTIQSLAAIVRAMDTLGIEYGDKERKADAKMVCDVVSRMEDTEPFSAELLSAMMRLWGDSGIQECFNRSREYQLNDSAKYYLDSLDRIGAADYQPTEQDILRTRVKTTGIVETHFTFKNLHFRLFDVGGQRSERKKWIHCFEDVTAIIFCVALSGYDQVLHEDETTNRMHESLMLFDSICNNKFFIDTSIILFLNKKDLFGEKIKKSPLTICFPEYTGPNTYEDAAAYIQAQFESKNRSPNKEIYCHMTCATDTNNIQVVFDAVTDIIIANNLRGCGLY

Target: Guanine nucleotide-binding protein G(o) subunit alpha (Homo sapiens) (UniProt P09471)
Assay: RGS7-Galphao binding modulators, primary screen, biochemical, multiplexed bead flow cytometry (AID 1439);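 also: fluorescent Galphao held in activated GDP-AlF4 state binding bead-coupled RGS7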
Settings: at 10 µM, actives lie on both sides

Compound	binding response (% of control)
C/C=C\C=C/C(=O)Nc1cccc(C2=NOC3(C2)C[C@@H](C(N)=O)N(C(=O)c2ccccc2)C3)c1 (stereo not given in full)	inconclusive: 91.3%
O=C(/C=C/c1ccc(Cl)cc1Cl)N1CCN(c2ccccc2[N+](=O)[O-])CC1	inactive: 98.6%
CCc1ccccc1Nc1nc2ccccc2n1C	inconclusive: 107%
CC(OC(=O)c1cccnc1)C(=O)Nc1ccc2c(c1)OCO2 (stereo not given)	inconclusive: 90.2%
CC1(OC(=O)C2CCCC2)C(=O)C=C2C=C(c3ccsc3)N(CC3CC3)C=C2C1=O (stereo not given)	inconclusive: 90.3%
CCOC(=O)N1C2=NC(C(=O)OC)=C(C(=O)OC)[C@@H]3N(C)c4ccccc4[C@]23C[C@H]1C(=O)OC	inconclusive: 97.6%
O=C1NC(NS(=O)(=O)c2ccc(Cl)cc2)(C(F)(F)F)C(=O)N1Cc1cccnc1 (stereo not given)	inactive: 92.8%
CN(C(=O)c1cc2c(s1)-c1ccccc1S(=O)(=O)C2)c1ccccc1F	inconclusive: 106%
CCOC(=O)c1[nH]c(C)c(C(=O)C(C)C)c1C	inactive: 101%
CCc1[nH]nc2c1C(C1C=CCCC1)C(C#N)=C(N)O2 (stereo not given)	inconclusive: 106%
Nc1cccnc1Sc1ccc([N+](=O)[O-])cn1	active: 5.78%
O=C(c1c[nH]c2ccccc12)N1CCN(Cc2ccccc2)CC1	inconclusive: 116%
CCCCCCCCCCCCS(=O)(=O)CCC(=O)O	inconclusive: 115%
CCCCc1nnc2c(N(C)S(=O)(=O)c3ccc(C)cc3)nc3ccccc3n12	inconclusive: 200%
CCOC(=O)c1nn(-c2ccc(Cl)cc2)cc1O	inconclusive: 229%
COC(=O)c1cccc(N2CCCC2=O)c1	inconclusive: 94.5%
Cc1ccc(C(=O)N/N=C2\SCC(=O)N2c2cc(C)ccc2C)cc1	inactive: 83%
CCOC(=O)c1sc(NC(=O)COC(=O)C(CCSC)NC(C)=O)nc1C (stereo not given)	inactive: 84.5%
Cc1cccnc1NC(=O)Nc1ccccc1	inconclusive: 80.8%
Oc1cccc(NC(=S)N=Nc2c(O)[nH]c3ccccc23)c1	inconclusive: 107%
Cc1ccc(CC(=O)NCc2cccnc2)cc1	inconclusive: 86.7%
CC1CN(/C(=N\S(=O)(=O)c2ccccc2)c2ccccc2)CC(C)O1 (stereo not given)	inconclusive: -574%
CCOC(=O)c1c(NC(=O)CSc2nnnn2C)sc(C(=O)N(C)C)c1C	inconclusive: 91.5%

Compound	binding response (% of control)
O=C(Nc1c(O)c2ccccc2[nH]c1=O)c1ccco1	inconclusive: 127%
COC(=O)c1c(-c2c(Cl)cccc2Cl)noc1C(=O)NNC(=O)N(C)C	inconclusive: 112%
O=Nc1c(O)n(Cc2ccccc2)c2ccccc12	inconclusive: 65.7%
COc1ccc([C@@H]2C[C@H](c3ccccc3)Oc3cc(C)cc(C)c32)cc1	inconclusive: 109%
N#CCC(=O)Nc1ccc(C(=O)Nc2cccnc2)cc1	inconclusive: 106%
Cc1ccc2[nH]c(C(F)(F)F)cc(=O)c2c1	inconclusive: 141%
CCOP(=O)(OCC)/C(=N/OC(=O)c1cccc([N+](=O)[O-])c1)C(N)=O	inconclusive: 50.1%
O=[N+]([O-])c1ccc(C(=S)N2CCN(c3ccc(F)cc3)CC2)cc1	inconclusive: 96.8%
O=C(Nc1cccc(S(=O)(=O)NC2=NCCC2)c1)c1cc(-c2ccccn2)nc2ccccc12	inconclusive: 135%
CC1CCc2sc(-c3n[nH]c(=S)o3)cc2C1 (stereo not given)	inconclusive: 107%
CC(C)(C)c1ccc(S(=O)(=O)N2CCSC2)cc1	inactive: 101%
COc1ccc(-c2ccc([C@H]3[C@@H]4C=CCC[C@@]4(C)C(=O)N3Cc3ccccc3)c(F)c2)cc1OC	inconclusive: 118%
COc1ccc(OCCC(=O)Nc2nccs2)cc1	inconclusive: 132%
CCCCN(C(=O)/C=C/c1ccco1)c1c(N)n(CCC)c(=O)[nH]c1=O	inconclusive: 99.8%
CCCCn1cnc2cc(C)c(C)cc21	inconclusive: 81.7%
COc1ccc(C(=O)N2CC3(CC(c4cccc(NC(=O)COc5ccc(Cl)cc5)c4)=NO3)C[C@@H]2C(N)=O)cc1 (stereo not given in full)	inconclusive: 112%
CCN(CC)CC(C)(C)COC(=O)c1oc2ccccc2c1C	inconclusive: 83.7%
Cc1c(Cl)cccc1NC(=S)N(C)CCC#N	inactive: 101%
O=C1C(=O)c2ccccc2C([O-])=C1[n+]1ccccc1	inconclusive: 147%
O=C(O)CCn1cc(C(=O)O)c(-c2ccccc2)n1	inconclusive: 96.7%
NC(=O)c1ccc(NC(=O)COC(=O)CCSc2ccccc2)cc1	inconclusive: 127%
O=c1c([N+](=O)[O-])cc(C(F)(F)F)cn1Cc1c(Cl)cccc1Cl	inactive: 92.5%
CC1(C)CC(=O)C(C=Nc2ccc(C(=O)c3ccccc3)cc2N=CC2=C(O)CC(C)(C)CC2=O)=C(O)C1	inconclusive: 101%

Compound	binding response (% of control)
COc1ccc(-n2nc(C(=O)NCC(=O)N3CCN(C)CC3)c3ccccc3c2=O)cc1OC	inactive: 110%
CC(C)NC(=O)C1CCN(c2ccc(S(=O)(=O)N3CCOCC3)cc2Cl)CC1	inconclusive: 76.4%
N#CCCN(C(=O)COC(=O)c1ccc2c(=O)n3c(nc2c1)CCC3)c1ccc(F)cc1	inconclusive: 88.3%
CCCNC(=O)COC(=O)c1cc(C)nc2ccccc12	inconclusive: 83.7%
O=C(Nc1nc2c(s1)CN(Cc1ccccc1)CC2)c1c(F)cccc1F	inactive: 97.9%
Cc1cccc(NC(=O)c2ccc(N3CCOCC3)c([N+](=O)[O-])c2)n1	inconclusive: 114%
CCOC(=O)/C(C#N)=C/Nc1cc(OC)ccc1OC	inactive: 107%
CCCCn1c(SCC(N)=O)nnc1-c1ccco1	inactive: 102%
C=C1c2cc3c(cc2NC(=S)N1Cc1ccccc1)OCO3	inconclusive: 115%
Cc1cc(=O)oc2cc(OCCC[n+]3ccccc3)ccc12	inconclusive: 112%
O=C(O)CCn1cc(/C=C2\NC(=S)N(c3ccccc3)C2=O)c(-c2ccc(Br)cc2)n1	inconclusive: 78.7%
CCCC/C(O)=C1\C(=O)CCCC1=NCCc1c(C)[nH]c2ccc(OC)cc12	inconclusive: 115%
COc1ccc(NC(=O)Nc2ncccc2C)cc1	inactive: 103%
O=C(Nc1cccc(Cl)c1)Nc1ccc2c(c1)OCO2	inactive: 106%
CC1(OC(=O)CCc2ccccc2)C(=O)C=C2C=C(c3ccc(C#N)cc3)N(C3CCCC3)C=C2C1=O (stereo not given)	inconclusive: 76.8%
CC(=O)N(c1ccccc1C)S(=O)(=O)c1ccc(Cl)cc1	inconclusive: 98%
O=C(NC(=S)N1CCN(Cc2ccccc2)CC1)c1ccco1	inconclusive: 88.4%
Cn1c(SCc2cccc(F)c2)nnc1-c1cnccn1	inconclusive: 3.78%
Cc1ccc(S(=O)(=O)Nc2ccc(Oc3cccnc3)nc2)cc1	inconclusive: 140%
NC(=O)C1(N2CCCCC2)CCN(C(=S)Nc2ccc(Cl)cc2)CC1	inactive: 108%
COc1ccccc1NC(=O)Cn1c(CCC(=O)O)ccc1-c1ccccc1	inactive: 104%
Cc1ccc(OC(C)C(=O)N/N=C/c2ccccn2)cc1 (stereo not given)	inactive: 104%
OCCC1CN(Cc2cc(F)ccc2-n2cccn2)CCN1Cc1ccc(F)cc1 (stereo not given)	inconclusive: 77.4%

6 neighbouring entries out of the list so far:
Compound	binding response (% of control)
Cc1cc(=O)oc2cc(OCCC[n+]3ccccc3)ccc12	inconclusive: 112%
O=C(O)CCn1cc(/C=C2\NC(=S)N(c3ccccc3)C2=O)c(-c2ccc(Br)cc2)n1	inconclusive: 78.7%
CCCC/C(O)=C1\C(=O)CCCC1=NCCc1c(C)[nH]c2ccc(OC)cc12	inconclusive: 115%
COc1ccc(NC(=O)Nc2ncccc2C)cc1	inactive: 103%
O=C(Nc1cccc(Cl)c1)Nc1ccc2c(c1)OCO2	inactive: 106%
CC1(OC(=O)CCc2ccccc2)C(=O)C=C2C=C(c3ccc(C#N)cc3)N(C3CCCC3)C=C2C1=O (stereo not given)	inconclusive: 76.8%

Remaining list, next part.

Compound	binding response (% of control)
Cc1ccc(/C([O-])=C(/C(=S)Nc2ccc(SC(F)F)cc2)[n+]2ccccc2)cc1[N+](=O)[O-]	inconclusive: 85.4%
COCCNC(=O)C1CC2Cn3c(nc4cc5ccccc5cc43)C2N1C (stereo not given)	inconclusive: 99.2%
N/C(Cc1ccc(Cl)cc1Cl)=N\OC(=O)c1ccc(Br)o1	inconclusive: 82.5%
COc1ccc2c3c([nH]c2c1)C1CC2C(CC(O)C(OC)C2C(=O)O)CN1CC3 (stereo not given)	inconclusive: 93.1%
CCCC1C(c2ccccc2)C(C#N)(C#N)C2(C#N)CC1(N)NC2=O (stereo not given)	active: 152% [activator]
O=C(c1ccc(CNS(=O)(=O)c2ccc(Br)cc2)cc1)N1CCCC1	inactive: 99.9%
CC(C)c1ccc2oc3nc(N)c(C(=O)O)cc3c(=O)c2c1	inactive: 98.4%
C/C(Cc1ccccc1)=N\NC(=O)CNC(=O)c1ccccc1O	inconclusive: 111%
S=C(NCc1cccnc1)Nc1ccc(Oc2ccc(Cl)cc2)cc1	inconclusive: 109%
COc1ccc([N+](=O)[O-])cc1NC(=O)C(C)Sc1ccc(C)cc1 (stereo not given)	inactive: 96.9%
CCN1C(=O)C(CC(=O)Nc2ccc(OC)cc2)N(CCc2ccccc2F)C1=S (stereo not given)	inconclusive: 87.6%
CC(C)c1onc(C(=O)N2C(C)CCCC2C)c1[N+](=O)[O-] (stereo not given)	inactive: 99.1%
CCOC(=O)c1cc(-c2ccc(C)c([N+](=O)[O-])c2)nc2c1c(=O)n(C)c(=O)n2C	inconclusive: 99.7%
COc1ccccc1/C=C/C=N/NC(=O)CC1C(=O)NN=C1C (stereo not given)	inconclusive: 107%
COC(=O)c1cn(C(=O)c2ccc(Cl)cc2)c2ccccc12	inconclusive: 23.6%
CN(C)/C=C1\Cc2ccccc2C1=O	inconclusive: 108%
CC(=O)Nc1nc(C)c(CCC2OCCO2)c(=O)[nH]1	inconclusive: 115%
COCCNC(=S)N(C)C1(c2ccccc2Cl)CCCCC1=O (stereo not given)	inactive: 99.8%
COC(=O)[C@H](CC(C)C)NC(=O)Nc1ccc(S(N)(=O)=O)cc1	inconclusive: 123%
CCOc1ccc(-n2c(=O)c3c(C)c(C(=O)N(C)C)sc3n(CC(=O)Nc3ccccc3F)c2=O)cc1	inactive: 98.9%
CC(NC(=O)CCC(=O)c1ccc(F)cc1)C1CC2CCC1C2 (stereo not given)	inconclusive: 94.3%
